Positions count from the first letter of the chain named. In names and notes the source's numbering stands. No constants are given. Whether binding was seen depends on the method and setting.
B1: hum10 (antibody, V domains shown)
VH: QVQLVQSGAEVKKPGASVKVSCKASGYIFTSYWIHWIRQPPGKGLEWIGRIYPGTGNTYYNEKFKGRVTISADKSISTAYLQWSSLKASDTAMYYCARSYDSSCAYWGQGTLVTVSS
VL: AIQLTQSPSSLSASVGDRVTITCSASSSVSYMHWYLQKPGQSPQLLIYETSKLASGVPSRFSGSGSGTDFTFTISSLEAEDAATYYCQQWSSNPYITFGQGTKVEIKR
B2: CPE-LC-E049K (antibody, V domains shown)
VH: B1 VH
VL: B1 VL with E49K
B3: CPS-02 (antibody, V domains shown)
VH: B1 VH with T30R, N57R, C104V
VL: B1 VL with E49K, S51R
B4: CPS-04 (antibody, V domains shown)
VH: B1 VH with T30R, E62R, C104V
VL: B1 VL with E49K, A54L
B5: CPS-09 (antibody, V domains shown)
VH: B1 VH with T30R, N57R, S102Y, C104V
VL: B1 VL with S51R
B6: CPS-14 (antibody, V domains shown)
VH: B1 VH with N57R, E62R, S102Y, C104V
VL: B1 VL with S51R
B7: CPS-17 (antibody, V domains shown)
VH: B1 VH with T30R, E62R, D101M, S102Y, C104V
VL: B1 VL with S51R
B8: CPS-01 (antibody, V domains shown)
VH: B1 VH with T30R, N57R, C104V
VL: B1 VL with E49K
B9: CPS-10 (antibody, V domains shown)
VH: B1 VH with T30R, N57R, S102Y, C104V
VL: B1 VL with A54L
B10: CPS-11 (antibody, V domains shown)
VH: B1 VH with T30R, N57R, S102Y, C104V
VL: B1 VL with E49K, S51R
B11: CPS-16 (antibody, V domains shown)
VH: B1 VH with T30R, E62R, D101M, S102Y, C104V
VL: B1 VL with E49K
B12: CPS-20 (antibody, V domains shown)
VH: B1 VH with T30R, E62R, D101M, C104V, A105G
VL: B1 VL with Y31K, S51R

What follows are binders tested against INF-2 (assay: ELISA on coated antigen (1 ug/ml), anti-hIgG-HRP, OD450).

binding, no binding (tested: 100 ng/ml):
B1
B2
B3
B4
B5
B6
B7

Each binder was assayed against INF-2 (assay: ELISA, antigen coated at 1 µg/ml, anti-hIgG-HRP).

binding, no binding (tested: 100 ng/ml):
B3
B4
B5
B6
B7
B8
B9
B10
B11
B12

Each binder was assayed on INF alpha A (assay: ELISA on coated antigen (1 ug/ml), anti-hIgG-HRP, OD450).

binding, no binding (tested: 100 ng/ml):
B1
B2
B3
B4
B5
B6
B7

The binders below were run on INF alpha A (assay: ELISA, antigen coated at 1 µg/ml, anti-hIgG-HRP).

binding, no binding (tested: 100 ng/ml):
B3
B4
B5
B6
B7
B8
B9
B10
B11
B12
